According to patent EP2769738B1 (Invivogen, priority 2013, dated 2014):

Assay: general procedure: Fmoc solid-phase peptide synthesis; 2-chlorotrityl chloride resin (Fmoc-Lys(Boc)-O-2-CTC resin); HATU/DIEA (or HBTU, TBTU)

Substance | step yield (late stage modification step) | conjugation yield (conjugation step)
(2S,5S,8S,11S,14S,17R)-17-amino-5-(4-(4-((6-amino-2-(butylamino)-8-hydroxy-9H-purin-9-yl)methyl)benzamido)butyl)-2,8,11-tris(4-aminobutyl)-14-(hydroxymethyl) -4,7,10,13,16,24-hexaoxo-21-(palmitoyloxy)-23-oxa-19-thia-3,6,9,12,15-pentaaza nonatriacontan-1-oic acid | yield 98% | 
(10S,13S,16S,19S,22S,25R)-10-(4-((6-amino-2-(butylamino)-8-hydroxy-9H-purin-9-yl) methyl)phenylcarbamoyl)-25-(tert-butoxycarbonylamino)-13,16,19-tris(4-(tert-butoxy carbonylamino)butyl)-22-(hydroxymethyl)-2,2-dimethyl-4,12,15,18,21,24-hexaoxo-3-oxa-27-thia |  | yield 47%
